The experiment concerns the target T1, Flag-tagged SIRT4, transfected into HEK293T cells (UniProt Q8R216).
T1 sequence: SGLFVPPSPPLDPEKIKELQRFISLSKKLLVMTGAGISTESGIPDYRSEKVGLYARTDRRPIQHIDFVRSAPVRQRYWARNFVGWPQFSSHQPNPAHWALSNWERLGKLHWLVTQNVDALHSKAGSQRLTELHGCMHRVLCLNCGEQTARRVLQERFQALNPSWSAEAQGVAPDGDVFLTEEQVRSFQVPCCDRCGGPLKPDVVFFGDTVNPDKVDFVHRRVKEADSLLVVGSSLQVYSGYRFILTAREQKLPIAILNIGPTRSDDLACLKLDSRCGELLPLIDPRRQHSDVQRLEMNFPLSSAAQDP
Put plainly: co-IP; Flag-tagged SIRT4 and HA-tagged PRDX3 plasmids cotransfected into HEK293T cells; IP lysis buffer, primary antibody and protein A+G agarose beads overnight at 4°C, immunoblot. (Immunoblotting shows a protein as a band on a membrane.)

No constants are given. Whether binding was seen depends on the method and setting. Binding seen in cells or lysates may run through a third protein. Some results given as binding are weak or reduced against the parent protein; the word gives no strength. Tags and fused reporters may be left off the sequences shown.

B1: HA-tagged PRDX3, transfected into HEK293T cells (protein, UniProt P20108 63-257)
chain: TPAVTQHAPYFKGTAVVNGEFKELSLDDFKGKYLVLFFYPLDFTFVCPTEIVAFSDKANEFHDVNCEVVAVSVDSHFSHLAWINTPRKNGGLGHMNITLLSDITKQISRDYGVLLESAGIALRGLFIIDPNGVVKHLSVNDLPVGRSVEETLRLVKAFQFVETHGEVCPANWTPESPTIKPSPTASKEYFEKVHQ
Consider B1, for which the binding entry was “binds”.
